This passage reports IC50 results from ChEMBL document CHEMBL5728977, “Therapeutic compounds and uses thereof” (2022).

Amino acid sequences for entries named in this document (tags omitted).
UniProt Q92793, whole entry: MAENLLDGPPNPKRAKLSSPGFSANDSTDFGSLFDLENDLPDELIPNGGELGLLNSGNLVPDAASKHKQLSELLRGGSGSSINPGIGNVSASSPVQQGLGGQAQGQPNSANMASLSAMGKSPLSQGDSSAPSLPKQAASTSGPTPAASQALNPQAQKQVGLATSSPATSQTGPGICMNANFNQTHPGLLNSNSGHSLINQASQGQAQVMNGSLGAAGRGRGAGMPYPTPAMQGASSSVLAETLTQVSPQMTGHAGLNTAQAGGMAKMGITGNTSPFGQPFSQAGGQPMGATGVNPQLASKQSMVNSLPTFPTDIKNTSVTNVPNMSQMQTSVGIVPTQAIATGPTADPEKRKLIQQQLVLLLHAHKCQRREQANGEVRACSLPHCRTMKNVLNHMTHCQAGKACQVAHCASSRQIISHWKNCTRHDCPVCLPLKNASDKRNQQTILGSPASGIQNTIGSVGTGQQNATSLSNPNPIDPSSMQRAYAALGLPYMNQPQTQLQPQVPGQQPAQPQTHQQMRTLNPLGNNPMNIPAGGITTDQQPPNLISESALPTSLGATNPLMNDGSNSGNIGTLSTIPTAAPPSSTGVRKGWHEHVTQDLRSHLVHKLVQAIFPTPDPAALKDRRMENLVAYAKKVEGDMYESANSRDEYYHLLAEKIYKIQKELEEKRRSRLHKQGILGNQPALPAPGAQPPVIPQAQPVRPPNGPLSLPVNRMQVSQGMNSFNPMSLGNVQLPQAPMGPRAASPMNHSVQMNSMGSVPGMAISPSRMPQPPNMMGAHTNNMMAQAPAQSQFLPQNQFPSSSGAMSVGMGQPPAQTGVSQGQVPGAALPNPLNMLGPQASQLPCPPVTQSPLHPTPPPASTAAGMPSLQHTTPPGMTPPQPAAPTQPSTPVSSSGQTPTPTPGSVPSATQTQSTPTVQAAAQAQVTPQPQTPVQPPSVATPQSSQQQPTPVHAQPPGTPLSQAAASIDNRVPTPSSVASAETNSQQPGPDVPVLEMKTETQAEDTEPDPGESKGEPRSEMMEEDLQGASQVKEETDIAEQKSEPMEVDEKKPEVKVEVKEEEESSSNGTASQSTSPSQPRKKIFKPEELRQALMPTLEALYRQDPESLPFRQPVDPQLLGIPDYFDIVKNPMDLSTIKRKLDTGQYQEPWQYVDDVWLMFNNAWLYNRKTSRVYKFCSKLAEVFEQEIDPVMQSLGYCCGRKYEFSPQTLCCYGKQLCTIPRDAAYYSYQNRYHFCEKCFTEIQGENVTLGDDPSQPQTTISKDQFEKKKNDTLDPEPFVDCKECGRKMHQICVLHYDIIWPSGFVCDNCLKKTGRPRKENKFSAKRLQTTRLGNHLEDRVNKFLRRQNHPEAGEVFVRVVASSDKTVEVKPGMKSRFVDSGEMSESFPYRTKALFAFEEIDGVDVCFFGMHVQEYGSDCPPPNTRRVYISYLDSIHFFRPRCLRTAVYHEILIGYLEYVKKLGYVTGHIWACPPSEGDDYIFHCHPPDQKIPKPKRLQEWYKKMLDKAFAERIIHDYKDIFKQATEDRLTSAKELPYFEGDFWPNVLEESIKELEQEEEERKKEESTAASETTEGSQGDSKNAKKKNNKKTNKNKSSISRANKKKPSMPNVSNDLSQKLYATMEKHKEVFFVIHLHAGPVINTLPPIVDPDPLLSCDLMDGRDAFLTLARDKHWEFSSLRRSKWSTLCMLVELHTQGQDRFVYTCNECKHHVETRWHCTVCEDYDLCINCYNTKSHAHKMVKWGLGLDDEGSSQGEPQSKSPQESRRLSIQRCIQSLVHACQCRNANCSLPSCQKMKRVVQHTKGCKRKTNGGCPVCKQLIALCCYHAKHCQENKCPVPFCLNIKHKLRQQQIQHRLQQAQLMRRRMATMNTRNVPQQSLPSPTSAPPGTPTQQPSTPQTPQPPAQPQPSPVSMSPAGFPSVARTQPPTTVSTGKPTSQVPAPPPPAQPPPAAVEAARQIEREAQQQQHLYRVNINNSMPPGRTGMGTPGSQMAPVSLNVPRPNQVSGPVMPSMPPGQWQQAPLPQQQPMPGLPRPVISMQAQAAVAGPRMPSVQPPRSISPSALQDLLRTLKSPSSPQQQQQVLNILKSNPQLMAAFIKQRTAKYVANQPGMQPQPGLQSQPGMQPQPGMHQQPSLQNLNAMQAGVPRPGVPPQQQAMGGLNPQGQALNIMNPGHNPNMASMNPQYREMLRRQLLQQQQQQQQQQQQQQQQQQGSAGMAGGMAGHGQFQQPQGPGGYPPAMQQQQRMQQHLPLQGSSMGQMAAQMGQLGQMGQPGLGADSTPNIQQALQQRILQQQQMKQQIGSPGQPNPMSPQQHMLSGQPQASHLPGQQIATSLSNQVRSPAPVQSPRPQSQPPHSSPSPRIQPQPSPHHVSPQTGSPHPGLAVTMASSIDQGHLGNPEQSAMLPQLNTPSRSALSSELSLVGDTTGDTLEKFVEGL

The target in the assay is CREB-binding protein (Homo sapiens, UniProt Q92793).

SMILES strings stand for the structures.

Turning to `COc1ccc(C2=NC3C=CC=C(c4nn(C5CCOCC5)c5c4CN(C(C)=O)CC5)C3O2)cc1` (stereo unspecified), the IC50 was 4.11 nM. This lies in the single-digit nanomolar range.
